In the supplement of paper PMC10331698:
± gives the standard deviation of the averaged measurements. Small differences around the control level are noise.

Assays:
Assay in all cases: level (log10 ratio to DMSO vehicle control); higher = higher biomarker level / cell amount than vehicle control
[1] = compound: C=C(C)C(=O)OCC(F)(F)C(F)(F)C(F)(F)C(F)(F)C(F)(F)C(F)(F)C(F)(F)F; settings: in DMSO
Experimental: (§1)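 BioMAP Diversity Plus panel of 12 human primary cell co-culture systems (3C, 4H, LPS, SAg, BT, BF4T, BE3C, CASM3C, HDF3CGF, KF3CT, MyoF, Mphg). Compounds were added 1 h before stimulation and left for 24 h (MyoF 48 h; BT 72 h for soluble read-outs or 6 d for IgG). Biomarkers were read by ELISA, cytotoxicity by SRB, PBMC viability and proliferation by Alamar Blue. Each well value was divided by the mean of 8 DMSO control wells on the same plate and log10 transformed; duplicate blinded samples were tested at 4 concentrations.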

[2] = compound: C=CC(=O)OCC(F)(F)C(F)(F)C(F)(F)C(F)(F)C(F)(F)C(F)(F)C(F)(F)F [1H,1H-Perfluorooctyl acrylate]; settings: 2200 nM; in DMSO
Experimental: as §1

[3] = compound: C=CC(F)(F)C(F)(F)C(F)(F)C(F)(F)C(F)(F)C(F)(F)C(F)(F)C(F)(F)C=C [1,8-Divinylperfluorooctane]; settings: in DMSO
Experimental: as §1

[4] = compound: COC(=O)C(F)(F)C(F)(F)OC(F)(C(F)(F)F)C(F)(F)OC(F)=C(F)F [Methyl perfluoro(3-(1-ethenyloxypropan-2-yloxy)propanoate)]; settings: in DMSO
Experimental: as §1

[5] = compound: CO[Si](C)(CCC(F)(F)C(F)(F)C(F)(F)C(F)(F)C(F)(F)C(F)(F)F)OC [Dimethoxymethyl((perfluorohexyl)ethyl)silane]; settings: in DMSO
Experimental: as §1

[6] = compound: FC(F)(F)C(F)(F)C(F)(F)CC1CO1 [1H,1H-Heptafluorobutyl epoxide]; settings: 2200 nM; in DMSO
Experimental: as §1

Heptafluorobutyl iodide = compound: FC(F)(F)C(F)(F)C(F)(F)CI [Heptafluorobutyl iodide]; settings: 2200 nM; in DMSO
Experimental: as §1

[7] = compound: NC(=O)C(F)(F)C(F)(F)C(F)(F)C(F)F; settings: in DMSO
Experimental: as §1

Pentafluoropropionamide = compound: NC(=O)C(F)(F)C(F)(F)F [Pentafluoropropionamide]; settings: 2200 nM; in DMSO
Experimental: as §1

[8] = compound: NS(=O)(=O)C(F)(F)C(F)(F)C(F)(F)C(F)(F)C(F)(F)C(F)(F)C(F)(F)C(F)(F)F [Perfluorooctanesulfonamide]; settings: in DMSO
Experimental: as §1

[9] = compound: O=C(O)C(F)(F)C(F)(F)C(F)F [4H-Perfluorobutanoic acid]; settings: in DMSO
Experimental: as §1

[10] = compound: O=P(O)(O)CCC(F)(F)C(F)(F)C(F)(F)C(F)(F)C(F)(F)C(F)(F)F [2-(Perfluorohexyl)ethylphosphonic acid]; settings: 2200 nM; in DMSO
Experimental: as §1

[11] = compound: O=S(=O)(F)C(F)(F)C(F)(F)C(F)(F)C(F)(F)C(F)(F)C(F)(F)C(F)(F)C(F)(F)F [Perfluorooctanesulfonyl fluoride]; settings: 2200 nM; in DMSO
Experimental: as §1

[12] = compound: O=S(=O)(O)C(F)(F)C(F)(F)C(F)(F)C(F)(F)C(F)(F)C(F)(F)C(F)(F)C(F)(F)F [Perfluorooctanesulfonic acid]; settings: 2200 nM; in DMSO
Experimental: as §1

[13] = compound: O=S(=O)(O)C(F)(F)C(F)(F)C(F)(F)C(F)(F)C(F)(F)C(F)(F)C(F)(F)C(F)(F)F [Potassium perfluorooctanesulfonate]; settings: 2200 nM; in DMSO
Experimental: as §1

[14] = compound: O=S(=O)(OCC(F)(F)F)C(F)(F)C(F)(F)C(F)(F)C(F)(F)F [2,2,2-Trifluoroethyl perfluorobutanesulfonate]; settings: 2200 nM; in DMSO
Experimental: as §1

[15] = compound: OCC(F)(F)C(F)(F)C(F)(F)C(F)(F)C(F)(F)C(F)F [1H,1H,7H-Dodecafluoro-1-heptanol]; settings: 2200 nM; in DMSO
Experimental: as §1

[16] = compound: OCCCCC(F)(F)C(F)(F)C(F)(F)C(F)(F)F [4:4 Fluorotelomer alcohol]; settings: 2200 nM; in DMSO
Experimental: as §1

Test System	level (log10) ([1]; 740 nM)	level (log10) ([1]; 2200 nM)	level (log10) [2]	level (log10) ([3]; 740 nM)	level (log10) ([3]; 2200 nM)	level (log10) ([4]; 740 nM)	level (log10) ([4]; 2200 nM)	level (log10) ([5]; 740 nM)	level (log10) ([5]; 2200 nM)	level (log10) [6]	level (log10) (Heptafluorobutyl iodide)	level (log10) ([7]; 2200 nM)	level (log10) ([7]; 6700 nM)	level (log10) ([7]; 20000 nM)	level (log10) ([7]; 60000 nM)	level (log10) (Pentafluoropropionamide)	level (log10) ([8]; 2200 nM)	level (log10) ([8]; 6700 nM)	level (log10) ([8]; 20000 nM)	level (log10) ([9]; 2200 nM)	level (log10) ([9]; 6700 nM)	level (log10) ([9]; 20000 nM)	level (log10) ([9]; 60000 nM)	level (log10) [10]	level (log10) [11]	level (log10) [12]	level (log10) [13]	level (log10) [14]	level (log10) [15]	level (log10) [16]
HDF3CGF:TIMP-1	0.012 ± 0.075	0.0225 ± 0.042	-0.0125 ± 0.026	0.016 ± 0.05	-0.005 ± 0.0014	-0.006 ± 0.0028	0.008 ± 0.0042	-0.015 ± 0.027	-0.016 ± 0.014	-0.0155 ± 0.05	0.0105 ± 0.025	-0.015 ± 0.025	-0.0005 ± 0.0064	-0.0095 ± 0.043	0.0045 ± 0.039	0.017 ± 0.045	0.0105 ± 0.012	0.065 ± 0.068	-0.138 ± 0.15	-0.008 ± 0.031	-0.015 ± 0.031	-0.007 ± 0.0014	0.0115 ± 0.021	0.0345 ± 0.03	-0.0125 ± 0.025	-0.002 ± 0.03	0.0185 ± 0.025	0.002 ± 0.018	-0.0025 ± 0.021	0.016 ± 0.058
CASM3C:Serum Amyloid A	0.0095 ± 0.011	-0.0055 ± 0.0035	0.0275 ± 0.011	0.005 ± 0.031	0.006 ± 0.025	-0.0155 ± 0.025	0.0265 ± 0.016	-0.001 ± 0.05	-0.0205 ± 0.00071	-0.0145 ± 0.029	-0.004 ± 0.034	-0.0115 ± 0.12	-0.054 ± 0.071	-0.0535 ± 0.026	-0.003 ± 0.024	0.0145 ± 0.012	0.0105 ± 0.0035	0.0055 ± 0.028	0.012 ± 0.047	-0.0305 ± 0.037	-0.056 ± 0.038	-0.083 ± 0.055	-0.0715 ± 0.11	0.0065 ± 0.025	0.0305 ± 0.0021	0.036 ± 0.079	0.039 ± 0.079	-0.016 ± 0.12	-0.0165 ± 0.012	0.033 ± 0.075
SAg:PBMC Cytotoxicity	0.0045 ± 0.0064	0.0035 ± 0.037	0.0225 ± 0.032	-0.02 ± 0.065	-0.011 ± 0.037	-0.0115 ± 0.044	-0.0125 ± 0.00071	0.016 ± 0.067	-0.0095 ± 0.013	0.012 ± 0.042	0.028 ± 0.023	-0.009 ± 0.0057	0.018 ± 0.016	-0.008 ± 0.011	0.0425 ± 0.067	-0.0065 ± 0.0035	0.032 ± 0.038	0.009 ± 0.034	0.0315 ± 0.0064	0.0195 ± 0.023	-0.0205 ± 0.015	0.002 ± 0.0042	0.017 ± 0.033	-0.0115 ± 0.03	0.0165 ± 0.061	0.006 ± 0.058	0.002 ± 0.054	-0.002 ± 0.028	-0.0195 ± 0.043	0.0155 ± 0.033
BE3C:MMP-1	0.0135 ± 0.00071	0.013 ± 0.016	-0.007 ± 0.02	0.0165 ± 0.094	0.004 ± 0.045	0.0365 ± 0.005	0.0575 ± 0.025	0.011 ± 0.072	-0.0055 ± 0.047	0.013 ± 0.011	-0.0015 ± 0.013	0.0085 ± 0.088	0.003 ± 0.054	-0.001 ± 0.0014	0.024 ± 0.0057	0.0345 ± 0.083	0.007 ± 0.044	0.084 ± 0.021	0.154 ± 0.014	-0.007 ± 0.0014	-0.033 ± 0.059	-0.0175 ± 0.0035	0.008 ± 0.051	0.041 ± 0.065	-0.0185 ± 0.0035	0.0515 ± 0.088	0.0595 ± 0.063	-0.007 ± 0.0071	0.027 ± 0.057	0.001 ± 0.018
